{"sequences": {"note": "Sequences of proteins named here, by UniProt entry; tags and fusion partners are left off.", "UniProt P08913, whole entry": "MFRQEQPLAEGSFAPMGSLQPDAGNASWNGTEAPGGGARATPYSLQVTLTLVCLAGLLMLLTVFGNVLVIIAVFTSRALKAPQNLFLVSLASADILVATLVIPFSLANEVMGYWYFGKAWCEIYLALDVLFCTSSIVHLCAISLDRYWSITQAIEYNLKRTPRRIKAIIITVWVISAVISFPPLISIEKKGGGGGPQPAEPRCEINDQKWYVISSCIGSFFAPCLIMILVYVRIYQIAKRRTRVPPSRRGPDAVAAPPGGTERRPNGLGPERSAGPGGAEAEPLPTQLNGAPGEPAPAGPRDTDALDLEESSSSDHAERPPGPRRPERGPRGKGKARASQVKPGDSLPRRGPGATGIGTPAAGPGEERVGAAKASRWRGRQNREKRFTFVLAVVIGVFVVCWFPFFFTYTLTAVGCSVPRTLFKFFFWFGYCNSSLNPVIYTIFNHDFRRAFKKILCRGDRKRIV"}, "source": "patent US6638943B2", "about": "(The University of Tennessee Research Foundation, priority 2001, dated 2003)", "target": "human α2a-AR (Homo sapiens, UniProt P08913)", "assay": "[3H]Rauwolscine equilibrium competition binding, human α2a-AR expressed in CHO cells", "settings": "Table 1, ratio of Ki values; tested form: 2HCl, 2.5H2O", "note": "The match of structure and compound is tentative."}
{"smiles": "O=C(NCCCCCCCCCCCCNC(=O)[C@@H]1[C@H]2C[C@H]3c4[nH]c5ccccc5c4CCN3C[C@@H]2CC[C@@H]1O)[C@@H]1[C@H]2C[C@H]3c4[nH]c5ccccc5c4CCN3C[C@@H]2CC[C@@H]1O", "values": [{"measurement": "α2a/α2b Selectivity = Ki(α2b)/Ki(α2a)", "value": 15.7}]}
